Experimental data as given in PubChem BioAssay AID2685 (National Center for Advancing Translational Sciences (NCATS), 2010).
The list shows a part of the results. Further columns of the screen follow, without active or inactive calls. Most of these compounds were active or inconclusive in the main read-out, so they are no random draw. Words in brackets tell the shape of the fitted curve; partial curves, single points and poor fits give uncertain potencies.

Assay: qHTS Assay for Lipid Storage Modulators in Drosophila S3 Cells;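 on cell number change: cells counted by Cell Tracker Red CMTPX staining in the red channel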
Settings: BODIPY lipid droplet fluorescence, 18-24 h; for cell number change: measured here: cell count max response, cells fed with added oleic acid
Procedure, shortened: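 Drosophila S3 cells got compounds at several concentrations plus oleic acid (400 uM solution). Laser-scanning cytometry with 488 nm excitation read lipid droplets at 500-530 nm and cells at 575-640 nm. Percent activity was relative to 20 uM Triacsin C.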

[1] = measured here: cell number channel AC50, cells fed with added oleic acid
[2] = measured here: lipid fluorescence (Fed channel) AC50, cells fed with added oleic acid

## COc1ccccc1NC(=O)CSc1nnc(Cc2cc(=O)[nH]c(=O)[nH]2)n1-c1ccccc1
[1]
  AC50: 3.66 µM [falling, single point]

## Cc1ccc(C(C)NC(=O)C2CCCC2)cc1C (stereo unspecified)
  cell number change: -18%
[2]
  AC50: 29.1 µM [rising, single point]

## Cc1ccc(S(=O)(=O)NCC(=O)Nc2ccc3c(c2)OCO3)cc1
  cell number change: 6.58%
[2]
  AC50: 6.31 µM [rising, single point]

## CCN1CCN(c2ccc(S(=O)(=O)N3CCCCC3)cc2NC(=O)/C=C/c2cc(OC)ccc2OC)CC1
  cell number change: -0.697%
[1]
  AC50: 1.64 µM [rising, partial curve, poor fit]
[2]
  AC50: 20.6 µM [falling, single point]

## COc1cccc(/C=N/n2c(C)nc3ccccc3c2=O)c1O
  cell number change: -84.5%
[1]
  AC50: 29.1 µM [falling, single point]
[2]
  AC50: 0.58 µM [rising, full curve, poor fit]

## Cc1ccc2nc(SCC(=O)Nc3cccnc3Cl)[nH]c2c1
  cell number change: 22.8%
[2]
  AC50: 29.1 µM [rising, single point]

## CC(C)CNC(=O)C(=O)NCC1CCCN1S(=O)(=O)c1cccs1 (stereo unspecified)
  cell number change: 11.6%

## CNc1c(C(=O)O)ccc2c1C(=O)c1ccccc1C2=O
  cell number change: -22.8%
[2]
  AC50: 3.66 µM [rising, partial curve]

## N#Cc1ccc(CN2CCN(C(=O)CC(NC(=O)c3ccccc3)c3ccccc3)CC2)cc1 (stereo unspecified)
  cell number change: 10.3%

## COC(=O)c1c(NC(=O)COC(=O)c2ccccn2)sc(C)c1C
[2]
  AC50: 2.59 µM [rising, single point]

## CC[N+](CC)(CC)CCOc1cccc(OCC[N+](CC)(CC)CC)c1OCC[N+](CC)(CC)CC
  cell number change: -22.3%
[2]
  AC50: 5.8 µM [falling, single point]

## CCOC(=O)N1CCN(S(=O)(=O)c2ccc(C(=O)N(CCCN(C)C)c3nc4c(F)cc(F)cc4s3)cc2)CC1
  cell number change: 64%

## COC(=O)c1ccc(NC(=O)c2ccc3c(c2)C(=O)N(C)C3=O)cc1
  cell number change: 10.6%
[2]
  AC50: 29.1 µM [rising, single point]

## CCn1c(CC(=O)Nc2ccc(F)cc2)nnc1SCC(=O)N1CCOCC1
  cell number change: -11.7%

## COc1ccc(-c2nc3ccc(N4CCN(C)CC4)cc3c(=O)[nH]2)cc1
  cell number change: 37.5%
[2]
  AC50: 1.16 µM [falling, single point]

## Cc1cccc(NC(=O)CSc2nc3c(c(=O)[nH]2)CCCC3)c1C
  cell number change: 42.4%
[1]
  AC50: 2.91 µM [rising, partial curve]
[2]
  AC50: 6.51 µM [falling, single point]

## N=c1c2c(n(Cc3ccc(Br)cc3)c3c1CCC3)CCCC2
  cell number change: -63.1%
[1]
  AC50: 32.6 µM [falling, single point]
[2]
  AC50: 32.6 µM [falling, single point]

## CCOc1ccc(-n2c(=O)c3c4c(sc3n(CC(=O)NCC3CCCO3)c2=O)CCCC4)cc1 (stereo unspecified)
[1]
  AC50: 0.366 µM [rising, partial curve, poor fit]

## CCCCC(=O)N/N=C/c1ccc(Sc2cccc3cccnc23)o1
  cell number change: -42.8%
[1]
  AC50: 29.1 µM [falling, single point]

## Cc1nc(SCCOc2ccccc2)[nH]c(=O)c1Cc1ccccc1
  cell number change: -19.2%
[2]
  AC50: 1.84 µM [falling, partial curve]

## O=C(N/N=C/c1ccccn1)c1cc([N+](=O)[O-])cc([N+](=O)[O-])c1
  cell number change: -12.1%
[2]
  AC50: 0.058 µM [falling, full curve, poor fit]

## Cc1nnc(N)s1
  cell number change: -47.6%

## CCC(C)[C@H](NC(=O)NCC1CCCO1)C(=O)OC (stereo partly specified)
  cell number change: -43.8%
[1]
  AC50: 0.461 µM [falling, full curve, poor fit]
[2]
  AC50: 0.411 µM [falling, full curve]

## O=C(Cn1nnc(-c2ccccc2)n1)NCc1ccc2c(c1)OCO2
  cell number change: -30.9%
[1]
  AC50: 8.2 µM [falling, partial curve, poor fit]
[2]
  AC50: 6.51 µM [falling, full curve, poor fit]

## CCCCCOc1ccc(OC(=O)c2ccncc2)cc1
  cell number change: -15.6%
[2]
  AC50: 29.1 µM [falling, single point]

## Cc1ccc(C(=O)Nc2nnc(-c3ccco3)o2)cc1
  cell number change: 14.4%

## O=C(c1c[nH]c2ccc(S(=O)(=O)N3CCOCC3)cc2c1=O)N1CCN(c2ccccn2)CC1
  cell number change: 22.9%
[2]
  AC50: 25.9 µM [rising, single point]

## O=C(CCc1nc2sc3c(c2c(=O)[nH]1)CCCC3)NCC(=O)Nc1ccccc1Br
  cell number change: -2.26%
[2]
  AC50: 0.00411 µM [rising, full curve, poor fit]

## COc1ccc(CCN2CC(C(=O)Nc3ccccc3F)CC2=O)cc1OC (stereo unspecified)
[1]
  AC50: 3.66 µM [falling, single point]

## CCOc1ccc(CCNC(=O)Cn2nc(C)c3c(C)n(-c4ccccc4)nc3c2=O)cc1
  cell number change: -2.31%

## COc1ccccc1C(=O)NCCC(=O)NNC(=O)C1COc2ccccc2O1 (stereo unspecified)
  cell number change: 1%

## O=C(Nc1nc(-c2ccccn2)cs1)c1ccc(S(=O)(=O)N2CCCCC2)cc1
  cell number change: -32.2%
[1]
  AC50: 16.4 µM [falling, partial curve]
[2]
  AC50: 10.3 µM [falling, partial curve]

## Cc1cnc([N+](=O)[O-])n1CCOC(=O)NC(=O)c1ccccc1
  cell number change: 13%

## CCCn1c(N)c(C(=O)CSc2nnc(-c3cccnc3)n2-c2ccc(C)cc2C)c(=O)[nH]c1=O
  cell number change: 20.1%
[2]
  AC50: 18.4 µM [rising, single point]

## COc1ccc2[nH]c3c(=O)n(Cc4ccc(C(=O)NCC5CCCO5)cc4)c(=S)[nH]c3c2c1 (stereo unspecified)
[2]
  AC50: 0.00461 µM [falling, full curve, poor fit]

## Nc1nonc1-c1nc2ccccc2[nH]1
  cell number change: -14.4%

## COc1ccccc1Nc1ccc(NS(=O)(=O)c2ccc(C(C)=O)cc2)cc1
  cell number change: 29.1%
[1]
  AC50: 4.11 µM [rising, full curve, poor fit]

## COc1ccc(C(=O)C2CCCN(Cc3c(O)cccc3OC)C2)cc1OC (stereo unspecified)
  cell number change: 12.6%
[2]
  AC50: 0.58 µM [rising, single point]

## COc1ccc(N2CCN(C(=S)Nc3cccc(OC)c3)CC2)cc1
  cell number change: -2.93%
[2]
  AC50: 0.82 µM [falling, full curve]

## Cc1ccc(NC(=O)C(C)SCc2nc3sc4c(c3c(=O)[nH]2)CCCC4)nc1 (stereo unspecified)
  cell number change: 10.7%

## O=C1C(Cc2ccccc2)Nc2ncnc(N3CCN(c4ccccc4)CC3)c2N1Cc1ccc(Cl)cc1 (stereo unspecified)
  cell number change: 28.2%
[2]
  AC50: 29.1 µM [rising, partial curve, poor fit]

## CCNC(=O)NC(=O)C(C)OC(=O)c1cc(S(=O)(=O)N2CCCCCC2)ccc1OC (stereo unspecified)
  cell number change: 46.6%
[1]
  AC50: 1.84 µM [rising, partial curve]

## O=C(NC1CCCC1)C(c1ccncc1)N(C(=O)c1ccco1)c1ccc(Cl)cc1 (stereo unspecified)
  cell number change: 4.17%
[2]
  AC50: 0.291 µM [falling, full curve]

## CN(C(=O)c1ccccc1-c1ccccc1C(=O)O)c1ccccc1
  cell number change: 15%
[2]
  AC50: 0.366 µM [rising, partial curve, poor fit]

## Cc1ccc(NC(=O)CN(C)C(=O)COc2ccc(C(=O)c3ccc(F)cc3)cc2)cc1
  cell number change: -3.37%
[1]
  AC50: 0.0461 µM [falling, full curve, poor fit]
[2]
  AC50: 29.1 µM [rising, single point]

## COc1ccc(C(CNC(=O)c2[nH]c(C)c(C(C)=O)c2C)N2CCOCC2)cc1 (stereo unspecified)
  cell number change: 5.39%
[2]
  AC50: 23.1 µM [rising, single point]

## CNC(=O)OC(C)CNS(=O)(=O)c1ccc(C)cc1 (stereo unspecified)
  cell number change: -29.5%
[1]
  AC50: 1.03 µM [falling, full curve, poor fit]
[2]
  AC50: 18.4 µM [falling, partial curve]

## O=C(NC1CCOc2ccccc21)c1ccccn1 (stereo unspecified)
  cell number change: 18.8%

## CCS(=O)(=O)N1CCC(C(=O)NCc2ccccc2OC)CC1
  cell number change: -16.3%

## COc1ccccc1OCCNC(=O)CNC(=O)c1ccc(C(C)(C)C)cc1
  cell number change: -44.1%
[1]
  AC50: 2.31 µM [falling, partial curve, poor fit]
[2]
  AC50: 16.4 µM [falling, partial curve, poor fit]

## CC(C)CC1Nc2ncnc(N3CCN(c4ccccc4)CC3)c2N(Cc2ccccc2)C1=O (stereo unspecified)
  cell number change: -4.98%
[2]
  AC50: 20.6 µM [rising, partial curve]

## CCCOc1ccc(C(=O)CCCC(=O)c2ccc(OCCC)cc2)cc1
[2]
  AC50: 29.1 µM [rising, single point]

## C/C(=N\Nc1nc(N)cc(Cl)n1)c1cccc(N)c1
  cell number change: 16.6%
[2]
  AC50: 25.9 µM [falling, single point]

## COC(=O)c1cc(NS(=O)(=O)c2ccc(NC(C)=O)cc2)ccc1Cl
  cell number change: 20.6%
[1]
  AC50: 6.51 µM [rising, single point]
[2]
  AC50: 29.1 µM [rising, single point]

## CSc1ccc(/C=N/Nc2cccc(C(=O)O)c2)cc1
[2]
  AC50: 5.8 µM [falling, partial curve, poor fit]

## COC(=O)C(C)Sc1nnc(Cc2cc(=O)[nH]c(=O)[nH]2)n1-c1ccc(OC)cc1 (stereo unspecified)
  cell number change: 13.2%

## COc1ccc2nc(C)cc(N/N=C/c3ccccc3)c2c1
  cell number change: -52.1%
[1]
  AC50: 25.9 µM [falling, partial curve]
[2]
  AC50: 29.1 µM [rising, single point]

## O=C(Cc1ccsc1)N1CCN(S(=O)(=O)c2cccc(F)c2)CC1
  cell number change: 30.3%
[1]
  AC50: 18.4 µM [rising, single point]

## NCC(O)(c1ccc(Cl)cc1)c1ccc(Cl)cc1
  cell number change: -9.93%
[2]
  AC50: 23.1 µM [rising, single point]

## Cc1ccc(C(=O)OCC(=O)Nc2ccccc2)cc1S(=O)(=O)N1CCCCC1
  cell number change: -1.82%
[2]
  AC50: 0.731 µM [falling, partial curve, poor fit]
